Results published in patent US20120035320A1 (University of Iowa Research Foundation, priority 2010, published 2012).
One purity is given for all peptides; the source may state it once. Some peptides are written in HELM: one residue between dots, names in brackets for other building blocks, links after the first $.

Assay: general procedure: Fmoc solid-phase peptide synthesis; Wang resin; HBTU/HOBt double coupling (DIC/HOBt for Cys-Trp-Lysn)
Details: conjugation step

Substance	conjugation yield [%]
Man9-L^3-(Acr-Lys)n	23
PEGyalted-Mal-(Acr-Glu)4	35
PEGyalted-Mal-(Acr-Leu)4	46
PEGyalted-Mal-(Acr-Lys)6	66
PEGyalted-SS-(Acr-Arg)4 (KRKRKRKR; 5 kDa PEG disulfide; acridine-modified residues)	44
PEGylated-Mal-(Acr-Arg)4	53
PEGylated-Mal-(Acr-Lys)2	64
PEGylated-Mal-(Acr-Lys)4	55
PEPTIDE1{[Acr].R.[Acr].R.[Acr].R.[Acr].R.C}|PEPTIDE2{[MalGly].W.K.K.G.I.G.A.V.L.K.V.L.T.T.G.L.P.A.L.I.S.L.I.K.R.K.R.Q.Q}$PEPTIDE1,PEPTIDE2,9:R3-1:R3$$$V2.0	35

Same assay, conditions: conjugation step, Abs 280 nm

Substance	final HPLC purity [%]
Man9-L^3-(Acr-Lys)n	>95

Same assay, conditions: conjugation step, analytical RP-HPLC with ESI-MS detection (LC-MS)

Substance	final LC-MS purity [%]
PEPTIDE1{[Acr].R.[Acr].R.[Acr].R.[Acr].R.C}|PEPTIDE2{[MalGly].W.K.K.G.I.G.A.V.L.K.V.L.T.T.G.L.P.A.L.I.S.L.I.K.R.K.R.Q.Q}$PEPTIDE1,PEPTIDE2,9:R3-1:R3$$$V2.0	>95

Same assay, conditions: whole synthesis, analytical RP-HPLC with ESI-MS detection (LC-MS), scale 30 μmol

Substance	final LC-MS purity [%]
Cys-(Acr-Lys)4	>95

Same assay, conditions: whole synthesis, scale 30 μmol

Substance	isolated yield [%]
Cys-(Acr-Lys)4	17

Same assay, conditions: whole synthesis, scale of the general procedure 30 μmol

Substance	isolated yield [%]
(Acr-Arg)4-Cys (KRKRKRKRC; acridine on Lys side chains)	30
(Acr-Glu)4-Cys	22
(Acr-Leu)4-Cys	31
(Acr-Lys)2-Cys	37
(Acr-Lys)4-Cys	26
(Acr-Lys)6-Cys	20
